Measured values taken from US4505914A, “Pharmaceutical for the treatment of sleep disorders” (Merckle GmbH, priority 1982, dated 1985).

How the values were obtained:
male NMR.tau. mice = experiment: Sleep duration, prolongation of sleeping time and ED50 under the influence of cinnarizine (Table 3); type: in vivo, mouse
Source text: (§1) A typical representative from the group of barbiturates with long action (phenobarbital), with short to average action (cyclobarbital-calcium) as well as ultra short action (hexobarbital) as well as a combination of two barbiturates (cyclobarbital-calcium+hexobarbital) was applied orally in graduated doses.

male NMRJ mice = experiment: Sleeping time prolongation under the influence of cinnarizine and flunarizine (ED50); type: in vivo, mouse; details: for ED50: sleeping time increased by 50%
Source text: as §1
Determination of the sleeping time prolongation under the influence of […]

SMILES: C(=C\c1ccccc1)/CN1CCN(C(c2ccccc2)c2ccccc2)CC1 [Cinnarizine, 1-benzhydryl-4-trans-cinnamylpiperazine]
- ED50 (male NMR.tau. mice; cinnarizine with cyclobarbital calcium 239 mg/kg, range (3.07-4.21)): 3.52 mg/kg
- ED50 (male NMR.tau. mice; cinnarizine with cyclobarbital calcium + hexobarbital (40 + 30) 225 mg/kg, range (4.19-6.49)): 4.94 mg/kg
- ED50 (male NMR.tau. mice; cinnarizine with hexobarbital 710 mg/kg): 0.77 mg/kg
- ED50 (male NMRJ mice; cinnarizine with cyclobarbital-Ca 239 mg/kg, probit analysis): 2.77 mg/kg
- ED50 (male NMRJ mice; cinnarizine with cyclobarbital-Ca + hexobarbital (40 + 30) 225 mg/kg): 4.68 mg/kg
- ED50 (male NMRJ mice; cinnarizine with hexobarbital 710 mg/kg, probit analysis): 0.75 mg/kg
- ED50 (male NMRJ mice; cinnarizine with phenobarbital 256 mg/kg, probit analysis): 3.57 mg/kg
- Dosage to obtain an ED50 with the combination of both barbiturates (male NMRJ mice; in comparison with the individual barbiturates): higher dosages
- Potency in the case of hexobarbital (male NMRJ mice; with hexobarbital): highest potency
